In data set [1] the target is recombinant human AGO2 (rhAGO2) (Homo sapiens) (UniProt Q9UKV8). The experiment in a line: EMSA. The note with it: EMSA: 10 mM HEPES-KOH pH 7.4, 50 mM KCl, 1 mM DTT, 3% Ficoll-400, 0.1 mg/ml BSA, 10 nM RNA, 0-200 nM hAGO2, 30 min at 25 or 37 C, 6% native gel at 4 C, recombinant protein, protein details: N-terminal FLAG and His; for binding result: 37 C. On the technique in general: A gel shift assay detects complexes by their altered migration in electrophoresis.

Data set [2] addresses FLAG-AGO2 (Homo sapiens) (UniProt Q9UKV8). Briefly: EMSA (agarose native gel RISC assembly). Particulars: EMSA: 10 mM HEPES-KOH pH 7.4, 50 mM KCl, 1 mM DTT, 3% Ficoll-400, 0.1 mg/ml BSA, 10 nM RNA, 0-200 nM hAGO2, 30 min at 25 or 37 C, 6% native gel at 4 C, protein in a lysate after overexpression, protein details: FLAG, label: 32P guide strand.
The target is the same in data set [3]. The experiment in a line: FLAG pull-down. The note with it: 37 C, protein in a lysate after overexpression, protein details: FLAG, label: 32P guide strand.
In another data set the target is FLAG-AGO1 (Homo sapiens) (UniProt Q9UL18). Briefly: EMSA (agarose native gel RISC assembly). Particulars: 37 C; EMSA: 10 mM HEPES-KOH pH 7.4, 50 mM KCl, 1 mM DTT, 3% Ficoll-400, 0.1 mg/ml BSA, 10 nM RNA, 0-200 nM hAGO2, 30 min at 25 or 37 C, 6% native gel at 4 C; protein in a lysate after overexpression; protein details: FLAG; label: 32P guide strand.
The target of data set [4] is FLAG-AGO2 D597A (PIWI catalytic mutant) (Homo sapiens) (UniProt Q9UKV8). The experiment in a line: EMSA (agarose native gel RISC assembly). The note with it: EMSA: 10 mM HEPES-KOH pH 7.4, 50 mM KCl, 1 mM DTT, 3% Ficoll-400, 0.1 mg/ml BSA, 10 nM RNA, 0-200 nM hAGO2, 30 min at 25 or 37 C, 6% native gel at 4 C, protein in a lysate after overexpression, protein details: FLAG, label: 32P guide strand.

Another data set addresses FLAG-AGO3 (Homo sapiens) (UniProt Q9H9G7). The experiment in a line: EMSA (agarose native gel RISC assembly). Particulars: 37 C; EMSA: 10 mM HEPES-KOH pH 7.4, 50 mM KCl, 1 mM DTT, 3% Ficoll-400, 0.1 mg/ml BSA, 10 nM RNA, 0-200 nM hAGO2, 30 min at 25 or 37 C, 6% native gel at 4 C; protein in a lysate after overexpression; protein details: FLAG; label: 32P guide strand.
The target in the next data set is FLAG-AGO4 (Homo sapiens) (UniProt Q9HCK5). The experiment in a line: EMSA (agarose native gel RISC assembly). The note with it: 37 C; EMSA: 10 mM HEPES-KOH pH 7.4, 50 mM KCl, 1 mM DTT, 3% Ficoll-400, 0.1 mg/ml BSA, 10 nM RNA, 0-200 nM hAGO2, 30 min at 25 or 37 C, 6% native gel at 4 C; protein in a lysate after overexpression; protein details: FLAG; label: 32P guide strand.

For data set [5], the target named is FLAG-AGO2 F181A (N domain mutant) (Homo sapiens) (UniProt Q9UKV8). Briefly: EMSA (agarose native gel RISC assembly). Particulars: EMSA: 10 mM HEPES-KOH pH 7.4, 50 mM KCl, 1 mM DTT, 3% Ficoll-400, 0.1 mg/ml BSA, 10 nM RNA, 0-200 nM hAGO2, 30 min at 25 or 37 C, 6% native gel at 4 C, protein in a lysate after overexpression, protein details: FLAG, label: 32P guide strand.

The target of data set [6] is FLAG-AGO2 dN (Homo sapiens) (UniProt Q9UKV8). Briefly: EMSA (agarose native gel RISC assembly). The note with it: EMSA: 10 mM HEPES-KOH pH 7.4, 50 mM KCl, 1 mM DTT, 3% Ficoll-400, 0.1 mg/ml BSA, 10 nM RNA, 0-200 nM hAGO2, 30 min at 25 or 37 C, 6% native gel at 4 C; protein in a lysate after overexpression; protein details: FLAG; label: 32P guide strand.

The exact form of at least one protein or probe is not confirmed. For some of these results: A negative result means that nothing was seen under these conditions. For some of these results: At least one verdict rests on a figure or table, not on a statement of the authors. For some of these results: At least one result comes from cells or an extract, where the contact may be indirect.

Consider “UGGAAUGUAAAGAAGUAUGUA [miR-1 guide ssRNA]”, for which the binding result in data set [1] (label: 32P) is recorded as “binds”.

On to “UGAGGUAGUAGGUUGUAUAGU / UAUACAACCUACUACCUCUUC [let-7a siRNA-OMe9 duplex]”, for which the binding result with FLAG-AGO2 (Homo sapiens) [2] (unwound at 37 C, hardly at 25 C, 2'-OMe at passenger nt 9) is “binds”.

As for “UGAGGUAGUAGGUUGUAUAGUU / CUAUACAAUCUACUGUCUUUC [let-7a-1 miRNA duplex]”, the binding result in the data set with FLAG-AGO2 (Homo sapiens) [2] (25 C) is “binds”.

With “UGGAAUGUAAAGAAGUAUGUA / CAUACUUCUUUACAUUCCCUA [miR-1 siRNA duplex]”, the dissociation constant Kd – broadly, a measure of binding affinity in units of concentration – in data set [1] (25 C, label: 32P guide strand) was greater than 200 nM. For the same sequence, the binding result in data set [1] (label: 32P guide strand) is given as “no binding”; in the data set with FLAG-AGO2 (Homo sapiens) [3], “binds”; with FLAG-AGO1 (Homo sapiens), “binds”; in data set [4], “binds”; with FLAG-AGO3 (Homo sapiens) it was “binds”; with FLAG-AGO4 (Homo sapiens), “binds”.

For “UGGAAUGUAAAGAAGUAUGUA / CAUACUUCUUUACAUUCCCUA [miR-1 siRNA PS duplex]”, the binding result is “no binding” in [1] (phosphorothioate (PO/PS) between passenger nt 9 and 10, label: 32P guide strand); “binds” in the data set with FLAG-AGO2 (Homo sapiens) [3] (phosphorothioate (PO/PS) between passenger nt 9 and 10).

Regarding “UGGAAUGUAAAGAAGUAUGUA / CAUACUUCUUUACAUUCCCUA [miR-1 siRNA-OMe9 duplex]”, the binding result with FLAG-AGO2 (Homo sapiens) [2] (pre-RISC at 15 C, mature RISC after shift to 37 C, 2'-OMe at passenger nt 9, letters put together from the description) is given as “binds”; in [4] (37 C, 2'-OMe at passenger nt 9, letters put together from the description), “binds”; in [5] (pre-RISC forms, slower unwinding, 2'-OMe at passenger nt 9, letters put together from the description), “binds”.

Consider “UGGAAUGUAAAGAAGUAUGUA / CAUACUUCUUUAUAUGCCCAUA [miR-1-OMe duplex]”, for which, in the data set with FLAG-AGO2 (Homo sapiens) [2] (25 C and 37 C, passenger fully 2'-OMe), the binding result is given as “binds”.

With “UGAGGUAGUAGGUUGUAUAGUU / CUGUACAGCCUCCUAGCUUUCC [let-7a-2 miRNA duplex]”, in the data set with FLAG-AGO2 (Homo sapiens) [2] (25 C), the binding result was “binds”.

For “UGGAAUGUAAAGAAGUAUGUA / CAUACUUCUUUAUAUGCCCAUA [miR-1 miRNA duplex]”, the binding result is given as “no binding” in [1] (label: 32P guide strand), “binds” with FLAG-AGO2 (Homo sapiens) [3], “binds” in data set [5] (unwinding less efficient than wild type at 25 C) and “no binding” in data set [6].

As for “UGGAAUGUAAAGAAGUAUGUA / CAUACUUCUUUACAUUCCCUA [miR-1 siRNA-OMe duplex]”, in the data set with FLAG-AGO2 (Homo sapiens) [2] (unwinding reduced, complete maturation at 42 C, passenger fully 2'-OMe, letters put together from the description), the binding result was “binds”.
